Data taken from article PMC7714401.
These are yes or no findings as the source states them, for the method shown. Binding calls can cover weak binding; strength is not graded here. For some of these results: Binding seen in cells or lysates may run through a third protein.

By UniProt entry, the sequences of proteins in these tests, tags left out. Where a name states a change or a piece, a line headed by the entry shows the natural chain unless it says otherwise. Residues count along the entry.
UniProt K9N4Q4: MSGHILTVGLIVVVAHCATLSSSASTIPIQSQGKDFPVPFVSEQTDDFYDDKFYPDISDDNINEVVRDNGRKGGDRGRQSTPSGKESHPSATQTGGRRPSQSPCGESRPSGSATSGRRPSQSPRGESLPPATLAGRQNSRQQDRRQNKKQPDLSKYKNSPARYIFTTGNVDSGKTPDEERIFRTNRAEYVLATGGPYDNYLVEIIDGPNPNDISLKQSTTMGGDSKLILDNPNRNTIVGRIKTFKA
UniProt Q02413: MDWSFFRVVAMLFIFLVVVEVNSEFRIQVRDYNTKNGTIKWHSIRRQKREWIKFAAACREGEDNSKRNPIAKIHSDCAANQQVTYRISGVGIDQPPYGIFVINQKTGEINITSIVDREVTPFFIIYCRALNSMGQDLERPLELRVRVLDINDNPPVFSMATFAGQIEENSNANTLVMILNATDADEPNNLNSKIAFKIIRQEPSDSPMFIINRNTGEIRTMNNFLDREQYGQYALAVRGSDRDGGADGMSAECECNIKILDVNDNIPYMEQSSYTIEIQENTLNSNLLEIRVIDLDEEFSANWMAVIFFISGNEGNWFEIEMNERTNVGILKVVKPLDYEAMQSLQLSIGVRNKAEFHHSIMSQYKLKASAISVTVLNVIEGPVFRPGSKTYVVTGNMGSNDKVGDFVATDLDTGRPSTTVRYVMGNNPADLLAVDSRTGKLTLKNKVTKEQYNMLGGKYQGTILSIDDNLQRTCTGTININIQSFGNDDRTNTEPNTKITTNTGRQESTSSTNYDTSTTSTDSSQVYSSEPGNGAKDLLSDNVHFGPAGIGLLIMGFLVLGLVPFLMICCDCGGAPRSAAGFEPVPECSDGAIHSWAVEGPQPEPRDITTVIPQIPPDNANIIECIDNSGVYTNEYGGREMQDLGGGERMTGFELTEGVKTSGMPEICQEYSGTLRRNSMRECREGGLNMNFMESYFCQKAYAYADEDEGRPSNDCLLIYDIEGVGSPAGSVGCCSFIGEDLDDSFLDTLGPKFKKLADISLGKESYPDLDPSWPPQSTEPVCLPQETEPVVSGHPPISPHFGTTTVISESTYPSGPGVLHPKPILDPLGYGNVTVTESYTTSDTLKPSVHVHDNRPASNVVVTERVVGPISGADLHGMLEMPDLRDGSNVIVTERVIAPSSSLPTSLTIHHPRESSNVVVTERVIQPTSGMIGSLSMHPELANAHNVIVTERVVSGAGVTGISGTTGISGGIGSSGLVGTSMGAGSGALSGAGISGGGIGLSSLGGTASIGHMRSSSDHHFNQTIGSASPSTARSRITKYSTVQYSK
recombinant human Dsg1: residues 50-548 of Q02413

T1: recombinant human Dsg3 (human) (UniProt P32926)
T1 sequence: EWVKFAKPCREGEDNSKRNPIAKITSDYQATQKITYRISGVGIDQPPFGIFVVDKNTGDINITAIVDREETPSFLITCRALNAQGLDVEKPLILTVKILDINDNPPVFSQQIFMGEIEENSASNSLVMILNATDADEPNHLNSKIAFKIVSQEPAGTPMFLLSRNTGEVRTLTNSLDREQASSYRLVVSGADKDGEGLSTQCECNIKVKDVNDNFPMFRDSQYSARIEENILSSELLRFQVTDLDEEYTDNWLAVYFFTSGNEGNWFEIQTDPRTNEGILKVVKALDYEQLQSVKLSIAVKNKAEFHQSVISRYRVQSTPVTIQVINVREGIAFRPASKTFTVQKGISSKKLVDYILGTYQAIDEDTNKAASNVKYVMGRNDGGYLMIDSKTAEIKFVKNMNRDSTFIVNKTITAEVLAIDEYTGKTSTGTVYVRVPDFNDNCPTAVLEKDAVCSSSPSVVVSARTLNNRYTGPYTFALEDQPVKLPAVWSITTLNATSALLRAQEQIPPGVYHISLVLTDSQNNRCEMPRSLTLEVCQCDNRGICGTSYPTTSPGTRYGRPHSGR


Columns and labels:
[1] = molecular target: recombinant PpSP32 protein of Phlebotomus papatasi (Phlebotomus papatasi) (UniProt K9N4Q4); test: co-IP; mixture of skin extract (100 μg) and rPpSP32 (25 μg) incubated at 4°C for 1 hour with Dynabeads M-270 Epoxy adsorbed with anti-His antibody; eluate analysed by Coomassie staining and by blots with anti-human Dsg1, anti-human Dsg3 and anti-His antibodies; only the target purified
[2] = molecular target: recombinant human Dsg1 (human) (UniProt Q02413); test: ELISA; plates coated with 0.1 μg recombinant protein in carbonate-bicarbonate buffer (0.1 M, pH 9.6) at 4°C overnight; incubated with decreasing concentrations of rPpSP32 (or CFP32) for 1 hour at 37°C; detected with human sera containing anti-PpSP32 or anti-CFP32 antibodies; both purified
[3] = molecular target: T1, recombinant human Dsg3 (human); test: as above

binding [1] | binding [2] | binding [3] | Molecule
binds | – | – | desmoglein 1 of the human epidermal extract (from UniProt Q02413 50-1049)
– | binds | binds | recombinant PpSP32 protein of Phlebotomus papatasi (from UniProt K9N4Q4)
binds | – | – | desmoglein 3 of the human epidermal extract (protein, UniProt P32926 50-999) EWVKFAKPCREGEDNSKRNPIAKITSDYQATQKITYRISGVGIDQPPFGIFVVDKNTGDINITAIVDREETPSFLITCRALNAQGLDVEKPLILTVKILDINDNPPVFSQQIFMGEIEENSASNSLVMILNATDADEPNHLNSKIAFKIVSQEPAGTPMFLLSRNTGEVRTLTNSLDREQASSYRLVVSGADKDGEGLSTQCECNIKVKDVNDNFPMFRDSQYSARIEENILSSELLRFQVTDLDEEYTDNWLAVYFFTSGNEGNWFEIQTDPRTNEGILKVVKALDYEQLQSVKLSIAVKNKAEFHQSVISRYRVQSTPVTIQVINVREGIAFRPASKTFTVQKGISSKKLVDYILGTYQAIDEDTNKAASNVKYVMGRNDGGYLMIDSKTAEIKFVKNMNRDSTFIVNKTITAEVLAIDEYTGKTSTGTVYVRVPDFNDNCPTAVLEKDAVCSSSPSVVVSARTLNNRYTGPYTFALEDQPVKLPAVWSITTLNATSALLRAQEQIPPGVYHISLVLTDSQNNRCEMPRSLTLEVCQCDNRGICGTSYPTTSPGTRYGRPHSGRLGPAAIGLLLLGLLLLLLAPLLLLTCDCGAGSTGGVTGGFIPVPDGSEGTIHQWGIEGAHPEDKEITNICVPPVTANGADFMESSEVCTNTYARGTAVEGTSGMEMTTKLGAATESGGAAGFATGTVSGAASGFGAATGVGICSSGQSGTMRTRHSTGGTNKDYADGAISMNFLDSYFSQKAFACAEEDDGQEANDCLLIYDNEGADATGSPVGSVGCCSFIADDLDDSFLDSLGPKFKKLAEISLGVDGEGKEVQPPSKDSGYGIESCGHPIEVQQTGFVKCQTLSGSQGASALSTSGSVQPAVSIPDPLQHGNYLVTETYSASGSLVQPSTAGFDPLLTQNVIVTERVICPISSVPGNLAGPTQLRGSHTMLCTEDPCSRLI
